Among all 52,000 sequences or so, about 210 (0.4%) were called active.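 Rule for the calls: active = gene whose silencing raises cell survival under the drug, median off-target-corrected z-score across its silencing RNAs 2 or more; inactive = the rest.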 Some of the results follow.
experiment: Resistance to Poly (ADP-Ribose) Polymerase inhibitor: Gene Identification via Genome-wide siRNA Screen; settings: mouse BRCA2 R2336H ES cells, olaparib, CellTiter-Glo viability; stronger effect = higher value
How it was run: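 Mouse BRCA2 R2336H ES cells were reverse-transfected with siRNA (20 nM final), treated at 48 h with 500 nM olaparib, and read by CellTiter-Glo after 72 h. Scores: MAD-based z per siRNA, median per gene, seed off-target correction.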

Sequence | z-score
GCCCUUUUCAUUCUCCAGATT against Zdhhc25 | inactive: -0.611
GGAGUGUCUUUUCUUUAAUTT against Acvr2 | inactive: 0.359
CGAGCACUCAAUGUGUUGGTT against Abcb6 | inactive: -0.0471
GCCACGACCAUUCAGACUCTT against A930011F22Rik | inactive: 2.32
GGGUUAGACAUCUUUCUGCTT against Olfr57 | inactive: 0.639
GUCUUUGGCUCGGUUUGCGTT against Dmrta2 | inactive: 0.0993
GGAGAGUGGGAACCACUACTT against Prkaca | inactive: 0.679
GGAGUAGACAGAGGAUGGCTT against 2310051M13Rik | inactive: -1.06
CCUUAUAGAGAGAGCCCUGTT against D8Ertd325e | inactive: -0.441
GGCUGUUCGUAAUAACCGCTT against Pcnt1 | inactive: -0.669
GCCAUCAUCUUUGUUUAGUTT against LOC240549 | inactive: 1.22
CCACAGAUUUGCCUGAAAATT against 4931407G18Rik | inactive: -1.01
GGACUACGGUGAUGAUGGATT against Dpt | inactive: -2.01
GCAUCACGCUAUAACCAUUTT against Slc22a17 | inactive: 0.934
CCCUCAACCCAUAAUAUUATT against Zfp364 | inactive: 0.162
GGCGGAAAUCAAAGGAGGATT against Dnmt1 | inactive: 1.1
GGGCUGCUGAUACAAACAATT against Dnmt2 | inactive: 1.31
GGGUACAAGAGUCUGUUCUTT against Fkrp | inactive: -1.28
GCUCUGCCUUCAGAUGACGTT against Olfr173 | inactive: -0.214
CCUAAGGAGACACGAAGCCTT against Pfc | inactive: 0.318
GGAUCAAGAAUUAAUGUCUTT against Nes | inactive: 0.00402
GGAAUAAAUACAGGUUCUCTT against Chuk | inactive: -0.985
GAAGCGAUGCUCAGAUCCATT against Serpina1d | inactive: -1.15
GGAAGAGAAUAGAUCCUAUTT against 2410081M15Rik | inactive: 2
CGACAUGUAAAACUAUUGUTT against BC034097 | active: 0.0442
GCAGCAAUGGUUUAACACCTT against 1110003E01Rik | inactive: 1.36

Sequence | z-score
GGCAUUAAAGACCUGUUAATT against Kpnb1 | inactive: 0.672
GGAAUGUGAAGGAUGUUCUTT against Nhlh1 | inactive: -1.83
GCGAGUAGAAUUCUUUAACTT against Tnrc11 | inactive: 0.795
GCUUUUACAAUUCAGGCAGTT against Naalad2 | inactive: 0.34
GGACAGACUGUGAUUCCUCTT against Bscl2 | inactive: -0.578
GGCUUUGUAUCAUCAUCAUTT against 4632428N05Rik | inactive: 0.83
CCUCGUUCCUGAUAACCAUTT against 0610010K14Rik | inactive: -0.473
GGAUCAUUUGUUAAUGUACTT against Ddx3y | inactive: 0.432
GGAGAUGUGUUGAGUUUUCTT against Abcg2 | inactive: -0.0939
GGUAGAUAUCCUUGAGUACTT against 3300001H21Rik | inactive: -1.66
GGACCGUCUGUCCUUUGUCTT against Pvrl2 | inactive: 0.0366
GGACAUAAUCAAAUACAACTT against Eif3s3 | inactive: -1.88
CCAUUCUAGCUGGUUCGAATT against D12Ertd647e | inactive: -0.025
GUCAGAUGCUGUAAGAUAATT against Defb4 | inactive: 1.27
CCUCAGUAUCUGUUUUCCGTT against Gnat2 | inactive: 1.22
GGAAGUCCAACUUCUUCCATT against Ebf4 | inactive: 0.771
GCCUGACCACCAACUUAUATT against Mast1 | inactive: 1.16
GGAGGAAAUAUGUUAACUATT against Atp6ap2 | inactive: -0.701
GGUCCUGGACAAGAGCAGUTT against Bcl11b | inactive: -1.3
GCCUGGUGUUGUGCUAUUUTT against Atf3 | inactive: -0.662
GGAUGAUGAGAGAAACAAATT against Jak1 | active: 2.1
GGAUGUGUAGUGCAAUUACTT against Olfr993 | inactive: -0.246
GGGCCUCCAUCCUACUAUGTT against Grina | inactive: -0.361
GGUUUUACCCGGUAAGUCCTT against Bcan | inactive: 1.11
GGUAGACAUUCCUAAGCCCTT against Ddx21 | inactive: -0.207
GAUCAAAGAAACUCCUCCCTT against Zfp50 | inactive: 0.591

Quoted from the listing.
CCAUUCUAGCUGGUUCGAATT against D12Ertd647e – z-score: inactive: -0.025
GGAGGAAAUAUGUUAACUATT against Atp6ap2 – z-score: inactive: -0.701
GGACAGACUGUGAUUCCUCTT against Bscl2 – z-score: inactive: -0.578

(listing goes on)

Sequence | z-score
GGCUCUGUGACCAAGAUUUTT against Rtcd1 | inactive: 1.14
CGAAGUGAGAAUUGAAUUUTT against Zp2 | inactive: 0.791
GGUGACGGCUACACUUUUCTT against Adrbk2 | inactive: 2.24
GGAUUCAUUUUGUGAGUGATT against Pax8 | inactive: 0.531
GGAGGGCUCACAUUGUACATT against D130011D22Rik | inactive: -0.484
GGGUCAAAGCAGAAAAAUCTT against S100a18 | inactive: -0.308
GCUCAAGUCGAAAAGUUGCTT against Gpc4 | inactive: -0.138
UCCAUUUCGACCCUUGUACTT against 2010100O12Rik | inactive: -0.516
GGAGAAGCAUUAUUUUGAATT against Myb | inactive: -0.653
CCAUUGCAUGCAAUGACUATT against S100a10 | inactive: -0.647
GGCCUUGAGGCUAUUCAUGTT against Stk16 | inactive: 0.0229
GGAGAAAAGGAAGUAAACUTT against Aldh9a1 | inactive: 2.32
CGACAAACACCGUAGCAAATT against Mkl2 | inactive: 2.27
GGAGGAAGAAGUAGUACUUTT against Nup43 | inactive: -0.855
GGAGAUCCUUCAUUACCUGTT against Psap | inactive: -0.239
CCUACCAGUACCUAGAACUTT against Slc5a5 | inactive: -0.472
GCCAAUGAGACUAAAUACGTT against Abca17 | inactive: -0.628
CCAAACCUGAGACCUAUUGTT against Lamb3 | inactive: -0.652
CGACUAUAGACUCUUGAAUTT against 1810037I17Rik | inactive: -0.75
GCUAAUCUGAGAAACAGGCTT against 2310002B06Rik | inactive: -0.161
AGAGCAAAAACUCGAGCACTT against Sox15 | inactive: 1.28
GCGAAUUGAGCUCAAACAUTT against 5830435K17Rik | inactive: 2.38
GGUGACGAGACAUUUAUUATT against Elovl5 | inactive: 0.954
CCAAUCUUCACAAUGGCUCTT against Smpd1 | inactive: 2.9
CGCAGCAUUGUUAGAUAUUTT against Adss2 | inactive: -0.471
GGGAGGAGUCAUUCAUGAGTT against D11Ertd636e | inactive: 1.07

Sequence | z-score
GGAAAUAAUGACCAAGUACTT against Gprk5 | inactive: -1.61
GCUUGUAAAUGGAACGACATT against 0610012G03Rik | inactive: 0.781
GGGUUCAUUUCUCAAAAUUTT against Nol7 | inactive: 1.09
GGGCAAAUUAUGCUGUCAUTT against Tomm20 | inactive: -0.851
CCAGUCUACAACUGUUCCUTT against E230022H04Rik | inactive: -1.28
GGCAUAAUGUGAAAAAAUGTT against P2ry10 | inactive: 0.836
GCAAUAGCAUACCUACCAUTT against 5830417C01Rik | inactive: -0.113
GGUGGUUUUGAGAAUUAACTT against Hist1h1d | inactive: 0.716
GGGUUUCAAUGGCACAAUUTT against Kif3b | inactive: 1.33
GGUGCGUUAUGGGUUUGUUTT against Ppm1b | inactive: -1.01
GCUAAGCUAAAUUAAAUGCTT against Rp2h | inactive: 0.487
GGACAUUUUCUACGUUGAATT against Phax | inactive: -2.15
GCUGUUUUGGUAGAUUUUGTT against Map3k8 | inactive: 1.3
GGUUUGUGGUGGUAUUUAATT against Man2a2 | inactive: -2.18
CCGUCUGGUACAACAUGAUTT against 2610529H08Rik | inactive: 0.171
GGUCGAUUGAUAUACAAAATT against Gdf6 | inactive: -0.599
GCCAAAAACGAUGAAAUGUTT against D14Ertd668e | inactive: -0.814
GGACAACUUCAACAGCACUTT against Rab13 | inactive: 0.41
GGUUAAAUAUGUAAACCACTT against Slco2b1 | inactive: -0.936
CGCAUAAUGGAUGAGAGGATT against Mef2a | inactive: 0.945
GGAUUCUCCGCACAGUUGGTT against BC026744 | inactive: -1.23
CCCUCUUGAAAUUAGUGUGTT against Dusp14 | inactive: 0.76
GGACCAGCCAUACCUGUGATT against Ndufa7 | inactive: -2.1
GGAUGUGUCUCUGGAACAUTT against Cdc37l1 | inactive: -1.34
GGUGUUUGGCGAUAAUAAGTT against Zdhhc15 | inactive: -0.212
GGGUCCUUUUUAGCUGUAGTT against Vdac1 | inactive: 0.889
